The values that follow come from PubChem BioAssay AID1347423 (Functional Genomics Laboratory (NCATS/FGL), 2020).

Among all 52,000 sequences or so, about 210 (0.4%) were called active.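 Rule for the calls: active = gene whose silencing raises cell survival under the drug, median off-target-corrected z-score across its silencing RNAs 2 or more; inactive = the rest.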 The list shows a part of the results.

The nature of the test: Resistance to Poly (ADP-Ribose) Polymerase inhibitor: Gene Identification via Genome-wide siRNA Screen. To be noted: mouse BRCA2 R2336H ES cells, olaparib, CellTiter-Glo viability; stronger effect = higher value. Summed up:
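Mouse BRCA2 R2336H ES cells were reverse-transfected with siRNA (20 nM final), treated at 48 h with 500 nM olaparib, and read by CellTiter-Glo after 72 h. Scores: MAD-based z per siRNA, median per gene, seed off-target correction.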
As for GGGACCCAGACAUUACAUGTT against Cldn6, the z-score is inactive: -0.265. The result for GGAUAAGAAACACAAGAAGTT against Srrm1 reads inactive: -0.147. Turning to “GGCUGCUACCAAGAGUCAATT against 2700029E10Rik”, the z-score was inactive: 0.664. On to GAGCCAAAUCAGGAACAGCTT against Trim29, for which the z-score was inactive: 1.5. Turning to GGCAUUCAGGAGGACUAGUTT against Lzp-s, the z-score is inactive: -1.12. Next, GGCACUUUUGAUUUCAGAUTT against Nrd1: inactive: 0.157; CGAAGUGGUCAAGUUCUCUTT against Fbxo17: inactive: -1.01; GCGGACCUUGUCCUAUAACTT against Slc9a2: inactive: -1.39. The result for GGACAGAUUUUCACCAUUCTT against Slc1a4 reads inactive: 0.0724.

Turning to CCUUCUAUUUAUAAGACCUTT against Lrch4, the z-score was inactive: 0.217.

As to GGACUCACUCCUUCCAUCATT against Pphln1, the z-score is inactive: -2.02. Next, GGUUAGUUCCUUAAAUUCCTT against BC016579: inactive: -0.122.

As to CCAGAUCGGGAAAAAGGGUTT against Tsn, the z-score is inactive: 0.983.

With GGAGCUGAAAAUCCAGCUGTT against Sdsl, the z-score was inactive: 0.679.

With CGGCUUUGCACCAUACUUATT against Galnt12, the z-score was inactive: -0.813. Next, GGAGAAGGAGCUGGAAACGTT against Cttn: inactive: -1.86; GCCACCGUAUAUUUUUAAUTT against Gats: inactive: 1.02. Regarding CCCUUUACAUUACUCUAGCTT against Olfr715, the z-score was inactive: -0.921. Next, GGGAAAUGUUGAUAAUAAGTT against Morf4l2: inactive: -0.869; “CCAUAUAGAUCAUCUGUUCTT against 4930470P17Rik”: inactive: -0.18; “GGAUAUGCUGAGGUGGUGGTT against 5730453I16Rik”: inactive: 0.775. The result for GGUUGGUCUCCUCUUCAUATT against Psmd10 reads inactive: -0.561. Consider GGAUUAAAUGCCUUGAAGGTT against Niban, for which the z-score is inactive: 0.624.

As for GAAUAUCCGCACACAAAGCTT against Olfr1356, the z-score is inactive: 0.196.

Take GCCAUUCACGACCCACUACTT against Olfr1095: the z-score is inactive: 0.865. The result for GCGGUCAAAUGCAACAAACTT against Fabp5 reads inactive: -0.133; that for GGUUGAGAAGUCUGUUAAUTT against Hsp105, inactive: 0.345. Next, GGUAUUUAGCCUUGCAUACTT against Sfrs8: inactive: -0.483; GCAGAGAUACCUAUCAAAGTT against Angptl4: inactive: -0.00897; “GCACUCUCAUUCCUAUUGGTT against E130304D01”: inactive: -1.19. Next, CGGGAAUAAGAUCUUUCUGTT against Zfp297: inactive: 0.946. As for GCGAAUCUUGGUUAAGCCGTT against Hook1, the z-score was inactive: -1.78. The result for GGAAGUCCAUCAGCUUUAUTT against BC028975 reads inactive: 0.554; that for GGGAGUUUGAUUCUGACUCTT against Ank3, inactive: 0.274; that for “GGACUUUGAGAACUUUUAUTT against C130053K05Rik”, inactive: 0.249. Next, GCAACAACGAGUCAUGGCUTT against Plcd: inactive: 0.689; GGGCUUGAGAACAACCAGATT against Adamdec1: inactive: -0.59; “GGCGUGCUCUGACACAAAATT against A030009H04Rik”: inactive: -0.22. The result for GGUCCUACAUAAUACAACATT against Myohd1 reads inactive: -0.216; that for GCUUCUAGCCUGUAUUGCCTT against Rps8, inactive: -2.91. Consider “CGGCAGUGGAACAAUAGACTT against 1700028N11Rik”, for which the z-score is inactive: -0.512.

With GGGAGAUGUUACAACUCAGTT against Sod2, the z-score was inactive: -0.0764. Next, GGAAACUGGAUCAAACCAUTT against Smarcd3: inactive: 0.666; GCCAAAAAGUGUGUGUUGGTT against Olfr731: inactive: 0.36; GCUGGCUUCAUUUUACUUATT against Degs: inactive: 0.198. In the case of GCAGCCUUGUUUCAGUUCUTT against BC022623, the z-score is inactive: -0.365.

As for GGAGGAAGACCUUCAGAGATT against Ell2, the z-score is inactive: -1.38. “ACGUGGAAUCUGCUGUAAUTT against D9Ertd402e”: the z-score was inactive: -0.386.

In the case of GGAGUAUCUGCUGUUCAGUTT against Gabpb1, the z-score was inactive: -1.26.

In the case of GGUUAACGGAUCAACAUUUTT against Ube2d2, the z-score is inactive: -0.583. The result for GGCGUAGGUCACCACAUUGTT against Spin2 reads inactive: -2.38; that for “CGAAGAAUGACGAUGAUAUTT against 1110034C04Rik”, inactive: -0.23; that for GCUCUUCUUACCACUGUAGTT against Wdfy3, inactive: 0.513. GGUGCUGAACAAGACCAAGTT against Cyp27a1: the z-score was inactive: -0.0933. Next, GGAAACAUCCACAAAGAGUTT against BC021438: inactive: -0.833. Next, AGGAAUGCCCAGGUCUCAGTT against Lst1: inactive: 1.62; GGUUUGAGGAGUUAGGUUCTT against Sdhd: inactive: 0.687; GGGCACAGACAUGUUUGAGTT against Padi3: inactive: 0.948. Next, GCCGGUCCUUAGAGUUGUUTT against Olfr506: inactive: -0.632; CCACAUCAAGUCUAUCAUCTT against Ryr1: inactive: 0.509; “GGAAAGACUAUGCCCAUCUTT against 4930474M22Rik”: inactive: 0.475. On to GGACAAUGUCCUCCAAUCUTT against Rgnef, for which the z-score is inactive: -1.42. Next, “CGUUGCACCUCUAUGGCAATT against 5832418A03Rik”: inactive: -0.8; GGCAAGUGACAUUGUUCCUTT against Gm110: inactive: 0.4. In the case of “GGAUCGGACUCUUUUAUAUTT against 2400006A19Rik”, the z-score is inactive: -2.97. Next, GGAAGACUGCACAGAUGUGTT against Ramp1: inactive: -0.943.
